From article PMC8429728, “TNK1 is a ubiquitin-binding and 14-3-3-regulated kinase that can be targeted to block tumor growth” (Nature Communications, 2021)

Legend:
TNK1-BirA-HA (human) = biological target: T1, TNK1-BirA-HA (human) (UniProt Q13470); experiment: proximity labelling; BioID: TNK1-BirA-HA in HEK-293T, 50 nM biotin for 10 h, lysis in RIPA without SDS, streptavidin agarose, LC-MS/MS
T1 sequence: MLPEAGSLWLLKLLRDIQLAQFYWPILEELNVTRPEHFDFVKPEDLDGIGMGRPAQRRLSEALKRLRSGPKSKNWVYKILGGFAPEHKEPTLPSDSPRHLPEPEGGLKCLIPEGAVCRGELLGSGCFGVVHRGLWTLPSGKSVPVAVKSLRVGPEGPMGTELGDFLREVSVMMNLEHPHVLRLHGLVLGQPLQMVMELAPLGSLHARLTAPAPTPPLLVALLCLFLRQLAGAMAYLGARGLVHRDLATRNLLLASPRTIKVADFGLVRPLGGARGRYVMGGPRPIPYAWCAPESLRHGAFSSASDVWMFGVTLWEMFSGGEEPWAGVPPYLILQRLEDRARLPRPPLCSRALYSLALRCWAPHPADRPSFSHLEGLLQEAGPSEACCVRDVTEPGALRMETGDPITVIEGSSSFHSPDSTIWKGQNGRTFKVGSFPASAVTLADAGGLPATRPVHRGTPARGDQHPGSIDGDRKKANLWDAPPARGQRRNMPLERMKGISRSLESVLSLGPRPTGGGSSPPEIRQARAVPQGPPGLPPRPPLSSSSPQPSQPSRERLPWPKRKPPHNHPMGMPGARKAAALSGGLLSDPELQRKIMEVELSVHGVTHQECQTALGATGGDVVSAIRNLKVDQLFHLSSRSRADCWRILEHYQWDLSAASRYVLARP

[1] = biological target: T2, FLAG-TNK1 (wild type) (human) (UniProt Q13470); experiment: affinity purification with mass spectrometry; direct co-IP of FLAG-TNK1 followed by LC-MS/MS
T2 sequence: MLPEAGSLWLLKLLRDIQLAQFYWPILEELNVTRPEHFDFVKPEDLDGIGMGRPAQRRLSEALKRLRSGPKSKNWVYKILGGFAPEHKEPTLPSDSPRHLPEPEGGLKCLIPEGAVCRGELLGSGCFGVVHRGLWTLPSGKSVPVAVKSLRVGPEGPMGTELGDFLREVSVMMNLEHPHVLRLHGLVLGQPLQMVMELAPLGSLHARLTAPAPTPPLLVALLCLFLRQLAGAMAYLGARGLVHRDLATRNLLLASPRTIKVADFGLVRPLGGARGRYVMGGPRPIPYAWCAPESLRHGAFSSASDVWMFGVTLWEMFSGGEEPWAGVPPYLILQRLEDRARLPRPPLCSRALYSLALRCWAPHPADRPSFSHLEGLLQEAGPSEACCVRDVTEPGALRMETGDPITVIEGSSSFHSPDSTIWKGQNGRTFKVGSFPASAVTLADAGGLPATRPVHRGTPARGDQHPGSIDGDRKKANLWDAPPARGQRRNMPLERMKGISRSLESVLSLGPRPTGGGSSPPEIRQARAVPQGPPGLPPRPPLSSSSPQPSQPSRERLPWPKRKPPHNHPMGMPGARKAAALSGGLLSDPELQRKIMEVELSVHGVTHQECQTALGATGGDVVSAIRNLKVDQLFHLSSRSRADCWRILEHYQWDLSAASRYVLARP

B1: 14-3-3 θ (protein, UniProt P27348 1-245)
chain: MEKTELIQKAKLAEQAERYDDMATCMKAVTEQGAELSNEERNLLSVAYKNVVGGRRSAWRVISSIEQKTDTSDKKLQLIKDYREKVESELRSICTTVLELLDKYLIANATNPESKVFYLKMKGDYFRYLAEVACGDDRKQTIDNSQGAYQEAFDISKKEMQPTHPIRLGLALNFSVFYYEILNNPELACTLAKTAFDEAIAELDTLNEDSYKDSTLIMQLLRDNLTLWTSDSAGEECDAAEGAEN
binding (TNK1-BirA-HA (human)): binds | binding [1]: binds

B2: 14-3-3 γ (protein, UniProt P61981 1-247)
chain: MVDREQLVQKARLAEQAERYDDMAAAMKNVTELNEPLSNEERNLLSVAYKNVVGARRSSWRVISSIEQKTSADGNEKKIEMVRAYREKIEKELEAVCQDVLSLLDNYLIKNCSETQYESKVFYLKMKGDYYRYLAEVATGEKRATVVESSEKAYSEAHEISKEHMQPTHPIRLGLALNYSVFYYEIQNAPEQACHLAKTAFDDAIAELDTLNEDSYKDSTLIMQLLRDNLTLWTSDQQDDDGGEGNN
binding (TNK1-BirA-HA (human)): binds | binding [1]: binds

Results are given in words; binding and its absence hold for the method and conditions named. Binding seen in cells or lysates may run through a third protein. Here binding means that the protein was enriched with, or labelled near, the bait; the list need not be complete. Where a sequence is shown, tags or fusion partners need not be part of it.
